Assay results: publication PMC10663510 (Scientific Reports, 2023)

Tested on: T1, MSMEG-3765 (TetR-like repressor)
T1 sequence (looked up, limits assumed): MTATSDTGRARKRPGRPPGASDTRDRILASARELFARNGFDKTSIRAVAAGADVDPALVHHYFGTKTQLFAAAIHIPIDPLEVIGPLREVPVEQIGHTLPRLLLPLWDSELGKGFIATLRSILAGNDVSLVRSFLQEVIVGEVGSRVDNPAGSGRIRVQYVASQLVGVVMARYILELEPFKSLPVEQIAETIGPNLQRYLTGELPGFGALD
Assay: EMSA
Settings: dose-dependent increase in free DNA, 20 mM HEPES pH 8.0, 75 mM NaCl, 10 mM MgCl2, 5% glycerol, 20 ul, 30 C 10 min, native 8% PAGE at 4 C, recombinant protein, label: none (SYBR Gold stain), probe letters rebuilt from the primers and the genome

“CTGCTGGAGTCCGCCGCCTGAGCCAGGCGTCGCCGACGCCGAAATGTGTCGACGCATCGTCTTCCCACCGGACGACGGCAGGCCTAGAATTCATTGCATGATGACTTCATCGCGCGATGAATTGTCAGCGACGGGGCCCG (double strand) [133 bp MSMEG_3762 upstream operator fragment]”: binds more weakly (ciprofloxacin 400 or 4000 pmol); binds more weakly (rifampicin 400 or 4000 pmol (also 100-400 pmol in Fig S6)).

The exact form of at least one protein or probe is not confirmed. Weaker means in comparison with the reference protein, sequence or condition of that experiment. Tags and fusion partners may be left off the protein sequences shown.
